This data set deals with T1, ETV6 (TEL) (Homo sapiens) (UniProt P41212).
T1 sequence (looked up, limits assumed): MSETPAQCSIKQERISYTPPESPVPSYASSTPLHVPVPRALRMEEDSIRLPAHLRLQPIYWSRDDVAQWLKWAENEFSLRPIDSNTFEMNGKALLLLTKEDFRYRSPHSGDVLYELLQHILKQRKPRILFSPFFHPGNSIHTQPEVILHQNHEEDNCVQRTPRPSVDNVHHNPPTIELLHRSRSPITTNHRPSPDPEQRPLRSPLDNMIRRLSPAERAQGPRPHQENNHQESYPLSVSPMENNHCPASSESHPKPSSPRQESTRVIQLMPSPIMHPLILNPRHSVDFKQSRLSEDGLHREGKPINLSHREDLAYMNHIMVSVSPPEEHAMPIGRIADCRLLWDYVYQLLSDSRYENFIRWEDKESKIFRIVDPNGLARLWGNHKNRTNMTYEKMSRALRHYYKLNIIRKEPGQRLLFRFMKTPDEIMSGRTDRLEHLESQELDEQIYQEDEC
Kind of data set: pull-down. Particulars: protein in an extract, label: desthiobiotin.

The exact form of at least one protein or probe is not confirmed. At least one result comes from cells or an extract, where the contact may be indirect. The comparison behind a weaker result is the experiment's own reference, which may not be listed here. Tags and fusion partners may be left off the protein sequences shown.

Consider “TTGAGAGAGAGAGAGAGAGAGATCCCTGAGAGAGAGAGAGAGAGAGA / AATCTCTCTCTCTCTCTCTCTCAGGGATCTCTCTCTCTCTCTCTCTC [EMSA3-Scram1 concatemer]”, for which, for the setting “scrambled control probe, ETV6 depleted relative to N1, same buffer”, the binding result is “binds more weakly”.
Consider “TTGAGAGGAAGGAAAGGAAGGATCCCTGAGAGGAAGGAAAGGAAGGA / AATCCTTCCTTTCCTTCCTCTCAGGGATCCTTCCTTTCCTTCCTCTC [EMSA3 concatemer (BV677278/READ1 segment, two copies)]”, for which the binding result (SILAC MS, single candidate shared by HeLa and Raji, enriched over scrambled probe, 150 mM NaCl, 50 mM Tris pH 8, 0.5% NP-40, 10 mM MgCl2, 4 C) is recorded as “binds”.
